Source: patent US20130110249A1 (UNIVERSITY OF ROCHESTER, published 2013)
Results are given in words; binding and its absence hold for the method and conditions named. Some binding calls cover weakened binding; strength is not graded here. For some assays here: Tags and fused reporters may be left off the sequences shown.

T1: native Gmd of S. aureus Xen29 (Staphylococcus aureus) (UniProt P0C5Z8)
T1 sequence (looked up): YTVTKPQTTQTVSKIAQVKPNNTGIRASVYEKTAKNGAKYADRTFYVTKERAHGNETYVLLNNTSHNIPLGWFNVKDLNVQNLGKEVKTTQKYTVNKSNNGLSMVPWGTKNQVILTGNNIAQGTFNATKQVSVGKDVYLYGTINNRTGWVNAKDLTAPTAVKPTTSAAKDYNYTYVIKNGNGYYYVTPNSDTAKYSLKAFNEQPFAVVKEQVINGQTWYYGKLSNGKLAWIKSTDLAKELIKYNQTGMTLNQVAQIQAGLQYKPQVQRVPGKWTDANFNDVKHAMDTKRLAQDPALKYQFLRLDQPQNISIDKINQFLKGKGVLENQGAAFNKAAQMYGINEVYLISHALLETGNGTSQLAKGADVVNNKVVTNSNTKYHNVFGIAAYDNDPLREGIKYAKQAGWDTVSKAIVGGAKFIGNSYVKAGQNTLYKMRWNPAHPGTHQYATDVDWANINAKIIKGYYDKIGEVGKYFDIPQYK

T2: native Gmd enzyme secreted by S. aureus strain UAMS-1 (Staphylococcus aureus) (UniProt P0C5Z8)
T2 sequence (looked up): T1 sequence (looked up)

T3: recombinant His-glucosaminidase (His-Gmd) of Staphylococcus aureus autolysin (Staphylococcus aureus) (UniProt A7X0T9)
T3 sequence: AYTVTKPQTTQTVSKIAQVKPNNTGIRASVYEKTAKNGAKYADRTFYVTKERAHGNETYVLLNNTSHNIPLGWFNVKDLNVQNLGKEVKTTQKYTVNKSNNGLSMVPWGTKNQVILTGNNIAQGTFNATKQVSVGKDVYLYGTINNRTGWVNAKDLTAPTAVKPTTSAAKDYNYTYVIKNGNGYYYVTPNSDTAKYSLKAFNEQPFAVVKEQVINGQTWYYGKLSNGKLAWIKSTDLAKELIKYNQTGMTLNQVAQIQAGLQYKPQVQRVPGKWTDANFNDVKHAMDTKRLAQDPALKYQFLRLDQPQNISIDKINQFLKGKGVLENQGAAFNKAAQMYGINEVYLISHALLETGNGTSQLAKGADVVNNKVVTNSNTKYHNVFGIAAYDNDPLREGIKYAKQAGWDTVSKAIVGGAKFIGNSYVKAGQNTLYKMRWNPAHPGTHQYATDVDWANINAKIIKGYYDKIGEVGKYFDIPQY

B1: anti-Gmd monoclonal antibody 1C11 (antibody, V domains shown)
VH: QIQLVQSGPELKKPGETVKISCKASGYTFTTYGMSWVNQAPGKGLKWMGWINTYSGVPTYADDFKGRFVFSLETSASTAYLQINNLKNEDTATYFCAREEYSSGYAAWFPYWGQGTLVTVSA
VL: DIVLTQSPATLSVTPGDSVSLSCRASQSISNNLHWYQQKSHESPRLLIEYASRSISGIPSRFSGGGSGTDFTLSINSVESEDFGLYFCQQSNSWPLTFGAGTKLELK
notes: also called mAb 1C11; mouse 1C11
B2: anti-Gmd monoclonal antibody 3A8 (antibody, V domains shown)
VH: EVQLQESGGGLVQPGGSMKLSCAASGFTFSDAWMDWVRQSPEKGLEWVAEIKDKTNNHATYYAESVKGRFTISRDVSKSRVFLQMNSLRPEDTGIYYCTSGPYFDYWGQGTTLTVSS
VL: DIVMTQSHKFMSTSVGDRVSITCKASQDVSTAVAWYQQKPGQSPKLLIYWTSTRHTGVPDRFTGSGSGTDFTLTISSVQAKDLALYYCQQHYTTPYTFGGGTKLEIK
notes: also called mAb 3A8; hybridoma 3A8

Columns and labels:
[1] = biological target: T1, native Gmd of S. aureus Xen29 (Staphylococcus aureus); test: inferred from the Xen29 growth (light scattering) assay
[2] = biological target: T2, native Gmd enzyme secreted by S. aureus strain UAMS-1 (Staphylococcus aureus); test: by the measure of enzyme inhibition
[3] = biological target: T3, recombinant His-glucosaminidase (His-Gmd) of Staphylococcus aureus autolysin (Staphylococcus aureus); test: by the measure of enzyme inhibition

Binder | binding [1] | binding [2] | binding [3]
B1 | binds | binds | 
B2 | binds | binds | binds
